The target in the test is T1, 重组人EphB4蛋白 (human) (UniProt P54760).
T1 sequence (looked up): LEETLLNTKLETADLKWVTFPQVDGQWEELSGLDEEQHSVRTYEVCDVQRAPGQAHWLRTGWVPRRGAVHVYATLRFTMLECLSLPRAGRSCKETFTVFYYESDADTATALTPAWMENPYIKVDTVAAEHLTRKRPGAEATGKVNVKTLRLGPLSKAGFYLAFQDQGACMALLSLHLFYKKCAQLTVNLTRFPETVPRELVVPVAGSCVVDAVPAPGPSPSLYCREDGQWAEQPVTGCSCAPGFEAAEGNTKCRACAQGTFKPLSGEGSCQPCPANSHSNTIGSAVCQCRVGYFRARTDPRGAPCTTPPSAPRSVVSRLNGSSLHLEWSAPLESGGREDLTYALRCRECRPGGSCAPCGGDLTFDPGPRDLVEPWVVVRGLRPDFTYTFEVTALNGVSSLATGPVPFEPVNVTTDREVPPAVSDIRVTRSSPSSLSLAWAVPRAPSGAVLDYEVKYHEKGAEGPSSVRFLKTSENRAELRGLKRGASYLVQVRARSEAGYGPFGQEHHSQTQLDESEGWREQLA
Put plainly: phage display panning and monoclonal phage ELISA on plate-coated recombinant EphB4; positive clone sequenced and expressed. (In general: In an ELISA, binding on a coated surface is turned into a signal by an enzyme label.)

Here are results for one molecule from patent CN114409792A.

These are yes or no findings as the source states them, for the method shown. Some binding calls cover weakened binding; strength is not graded here.

B1: EphB4纳米抗体A65 (VHH)
VHH: QVQLVESGGGLVQAGGSLRLSCAASGRTFSAYVMAWFRQAPGKEREFVAAISRTAVYTTYADSVKGRFTISRDFAKDTVYLQMDSLKPVDTAVYYCAADSAVDYRRTYYSPGDFGSWGQGTQVTVSS
For the molecule B1, the binding entry is given as “binds”.
